# Data reported in patent US20180273595A1.
# No constants are given. Whether binding was seen depends on the method and setting.
# Target: GUS
# Assay: reverse phage ELISA: plate coated with purified protein, phage supernatant, anti-M13-HRP, absorbance at 450 nm
row,Binder,binding
1,"LSFGTFPGGGS (peptide, not shown: large carriers) [phage clone displaying LSFGTFP]",no binding
2,"FSASSPAGGGS (peptide, not shown: large carriers) [phage clone displaying FSASSPA]",no binding
3,"FSFGSLPGGGS (peptide, not shown: large carriers) [phage clone displaying FSFGSLP]",no binding
4,"MTFGTLPGGGS (peptide, not shown: large carriers) [phage clone displaying MTFGTLP]",no binding
5,"LTFGSLPGGGS (peptide, not shown: large carriers) [phage clone displaying LTFGSLP]",no binding
6,"LRFGTLPGGGS (peptide, not shown: large carriers) [phage clone displaying LRFGTLP]",no binding
7,"YTFGTLPGGGS (peptide, not shown: large carriers) [phage clone displaying YTFGTLP]",no binding
8,"FTFGSLPGGGS (peptide, not shown: large carriers) [phage clone displaying FTFGSLP]",no binding
9,"LSFGSFPGGGS (peptide, not shown: large carriers) [phage clone displaying LSFGSFP]",no binding
10,"LPPYLFTGGGS (peptide, not shown: large carriers) [phage clone EIP1 (LPPYLFT displayed on phage)]",no binding
11,"LSFGSLPGGGS (peptide, not shown: large carriers) [phage clone EIP2 (LSFGSLP displayed on phage)]",no binding
12,"LAFGSLPGGGS (peptide, not shown: large carriers) [phage clone displaying LAFGSLP]",no binding
